{
  "source": "PubChem BioAssay AID246",
  "about": "(DTP/NCI, 2004)",
  "test_system": "BDF1 mice, P1081 chloroleukemia ip, survival T/C",
  "assay": "NCI In Vivo Anticancer Drug Screen. Data for tumor model P1081 Chloroleukemia (intraperitoneal) in B6D2F1 (BDF1) mice",
  "conditions": "T/C endpoint: mean survival time, higher T/C = longer survival",
  "description": "The antitumor activity of compounds was measured in mice bearing transplantable tumors. Survival or tumor size were measured and the results are expressed as the measurement made in the treated group (T) divided by the measurement made in the vehicle treated control group (C). The tumor model used in this assay is P1081 Chloroleukemia (intraperitoneal) in B6D2F1 (BDF1) mice",
  "key": {"[1]": {"conditions": "dose: 3.12 mg/kg/injection, schedule: Q01DX Z (ip), vehicle: water"}, "[2]": {"conditions": "dose: 6.25 mg/kg/injection, schedule: Q01DX Z (ip), vehicle: water"}, "[3]": {"conditions": "dose: 2.0 mg/kg/injection, schedule: Q01DX010 (ip), vehicle: saline"}, "[4]": {"conditions": "dose: 4.0 mg/kg/injection, schedule: Q01DX Z (ip), vehicle: carboxymethylcellulose (CMC)"}},
  "note": "The list does not hold the whole screen: its compounds were picked by chemical class. Not every dose and run of a compound is shown. T/C gives the treated animals as a percentage of the vehicle group. Some entries give survivors of the animals treated and no T/C: the source holds a T/C of zero for them, seemingly a mark for toxic or unscored doses. Some doses without a T/C left all or most animals alive at the check, yet need not have been tolerated: the source hardly ever lists a survival T/C far under the control, and the zero likely stands for such cases as well. Survivors were counted at the toxicity check, usually on the fifth day, unless a day is given; later deaths do not show. Schedule codes are those of the source, read here as Q, the interval in days (D) or hours (H), X, the number of doses. Some doses were run more than once; the values are given in rising order. Some schedule codes hold Z or #, which are not explained here. For survival time, this PubChem deposit counts one and a half times the control or more as active, and values a quarter to a half above the control carry no call in these data; other NCI protocols may use other cut-offs. Some T/C values are followed by the survivors on the day toxicity was checked, most often the fifth; where neither a count nor a note follows, no animal had died by that day.",
  "data": [
    {"smiles": "CC[C@H](C)[C@@H]1NC(=O)/C(=C(\\C)O)C1=O", "values": [
      {"measurement": "T/C", "setting": "dose: 1.6 mg/kg/injection, schedule: Q01DX Z (ip), vehicle: water", "result": "87 and 101 % of control"},
      {"measurement": "T/C", "setting": "[1]", "result": "97 % of control"},
      {"measurement": "survivor count", "setting": "[1]", "result": "6 of 6"},
      {"measurement": "T/C", "setting": "[2]", "result": "101 and 113 % of control"},
      {"measurement": "survivor count", "setting": "[2]", "result": "6 of 6"},
      {"measurement": "T/C", "setting": "dose: 12.5 mg/kg/injection, schedule: Q01DX Z (ip), vehicle: water", "result": "98 and 105 % of control"},
      {"measurement": "T/C", "setting": "dose: 25.0 mg/kg/injection, schedule: Q01DX Z (ip), vehicle: water", "result": "106 % of control"},
      {"measurement": "survivor count", "setting": "dose: 50.0 mg/kg/injection, schedule: Q01DX Z (ip), vehicle: water", "result": "4 of 6"}
    ]},
    {"smiles": "Cc1[nH]c(=O)[nH]c(=O)c1N(CCCl)CCCl", "values": [
      {"measurement": "T/C", "setting": "dose: 0.25 mg/kg/injection, schedule: Q01DX Z (ip), vehicle: carboxymethylcellulose (CMC)", "result": "90 % of control"},
      {"measurement": "T/C", "setting": "dose: 0.5 mg/kg/injection, schedule: Q01DX010 (ip), vehicle: saline", "result": "140 and 150 % of control"},
      {"measurement": "T/C", "setting": "dose: 0.5 mg/kg/injection, schedule: Q01DX Z (ip), vehicle: carboxymethylcellulose (CMC)", "result": "90 % of control"},
      {"measurement": "T/C", "setting": "dose: 1.0 mg/kg/injection, schedule: Q01DX010 (ip), vehicle: saline", "result": "105 and 211 % of control"},
      {"measurement": "T/C", "setting": "dose: 1.0 mg/kg/injection, schedule: Q01DX Z (ip), vehicle: carboxymethylcellulose (CMC)", "result": "96 % of control"},
      {"measurement": "T/C", "setting": "[3]", "result": "333 % of control"},
      {"measurement": "survivor count", "setting": "[3]", "result": "6 of 6"},
      {"measurement": "T/C", "setting": "dose: 2.0 mg/kg/injection, schedule: Q01DX Z (ip), vehicle: carboxymethylcellulose (CMC)", "result": "92 % of control"},
      {"measurement": "survivor count", "setting": "dose: 4.0 mg/kg/injection, schedule: Q01DX010 (ip), vehicle: saline", "result": "5 of 6 and 6 of 6"},
      {"measurement": "T/C", "setting": "[4]", "result": "112 % of control"},
      {"measurement": "survivor count", "setting": "[4]", "result": "6 of 6"},
      {"measurement": "survivor count", "setting": "dose: 8.0 mg/kg/injection, schedule: Q01DX Z (ip), vehicle: carboxymethylcellulose (CMC)", "result": "3 of 6 and 6 of 6"},
      {"measurement": "survivor count", "setting": "dose: 16.0 mg/kg/injection, schedule: Q01DX Z (ip), vehicle: carboxymethylcellulose (CMC)", "result": "3 of 6 and 6 of 6"}
    ]},
    {"smiles": "CN(N=O)C(=N)N[N+](=O)[O-]", "values": [
      {"measurement": "T/C", "setting": "dose: 8.0 mg/kg/injection, schedule: Q01DX010 (ip), vehicle: saline", "result": "122 and 155 % of control"},
      {"measurement": "T/C", "setting": "dose: 9.4 mg/kg/injection, schedule: Q01DX Z (ip), vehicle: carboxymethylcellulose (CMC)", "result": "96 % of control"},
      {"measurement": "T/C", "setting": "dose: 16.0 mg/kg/injection, schedule: Q01DX010 (ip), vehicle: saline", "result": "105 and 144 % of control"},
      {"measurement": "T/C", "setting": "dose: 18.75 mg/kg/injection, schedule: Q01DX Z (ip), vehicle: carboxymethylcellulose (CMC)", "result": "108 % of control [5 of 6 alive]"},
      {"measurement": "T/C", "setting": "dose: 32.0 mg/kg/injection, schedule: Q01DX010 (ip), vehicle: saline", "result": "88 and 94 % of control"},
      {"measurement": "survivor count", "setting": "dose: 37.5 mg/kg/injection, schedule: Q01DX Z (ip), vehicle: carboxymethylcellulose (CMC)", "result": "4 of 6"},
      {"measurement": "survivor count", "setting": "dose: 64.0 mg/kg/injection, schedule: Q01DX010 (ip), vehicle: saline", "result": "5 of 6 and 6 of 6"},
      {"measurement": "survivor count", "setting": "dose: 75.0 mg/kg/injection, schedule: Q01DX Z (ip), vehicle: carboxymethylcellulose (CMC)", "result": "2 of 6"}
    ]},
    {"smiles": "NC1CCCCC1.O=P(O)(N(CCCl)CCCl)N1CC1", "values": [
      {"measurement": "T/C", "setting": "dose: 1.25 mg/kg/injection, schedule: Q01DX010 (ip), vehicle: saline", "result": "100 % of control"},
      {"measurement": "T/C", "setting": "dose: 2.5 mg/kg/injection, schedule: Q01DX010 (ip), vehicle: saline", "result": "104 and 109 % of control"},
      {"measurement": "T/C", "setting": "dose: 5.0 mg/kg/injection, schedule: Q01DX010 (ip), vehicle: saline", "result": "122 and 159 % of control"},
      {"measurement": "T/C", "setting": "dose: 10.0 mg/kg/injection, schedule: Q01DX010 (ip), vehicle: saline", "result": "186 and 300 % of control"},
      {"measurement": "T/C", "setting": "dose: 20.0 mg/kg/injection, schedule: Q01DX010 (ip), vehicle: saline", "result": "100 % of control"}
    ]}
  ]
}
